# Literature values in patent US11332499B2, “Cyclic peptides and methods of use thereof” (Regents of the University of Minnesota, priority 2018, dated 2022).
# Amino acid sequences for entries named in this document (tags omitted).
# UniProt P56450, whole entry: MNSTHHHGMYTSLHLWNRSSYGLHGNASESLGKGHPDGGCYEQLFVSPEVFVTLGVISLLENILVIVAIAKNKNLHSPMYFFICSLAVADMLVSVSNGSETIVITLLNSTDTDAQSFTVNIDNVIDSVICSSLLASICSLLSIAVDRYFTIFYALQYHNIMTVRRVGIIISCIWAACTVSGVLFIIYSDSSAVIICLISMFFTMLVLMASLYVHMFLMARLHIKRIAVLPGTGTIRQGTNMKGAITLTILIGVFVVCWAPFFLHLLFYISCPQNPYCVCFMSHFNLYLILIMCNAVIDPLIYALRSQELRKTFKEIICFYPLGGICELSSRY
# Some results were stated once for a whole list of compounds, not compound by compound. Some ranges recur; such a range may be that of the whole group of compounds.
# Molecular target: mMC4R (Mus musculus, UniProt P56450)
# Set-up: expressed in transfected cells
# Conditions: previous SAR study (ref 52); cited from earlier work
row,Substance,fold decreased antagonist potency compared to the Dap substitution at the mMC4R
1,c[Pro-Arg-Phe-Phe-Asp-Ala-Phe-DPro] [Peptide 7 (Example 1)],50-100 fold
2,c[Pro-Arg-Phe-Phe-Glu-Ala-Phe-DPro] [Peptide 8 (Example 1)],50-100 fold
